Measured values taken from PMC5312391.
No constants are given. Whether binding was seen depends on the method and setting. In cells and extracts the contact can be indirect. Some entries that bind do so weakly or less than the wild type. Blank lines part the entries; values can stand above or below the molecule they belong to.

By UniProt entry, the sequences of proteins in these tests, tags left out.
UniProt P42224: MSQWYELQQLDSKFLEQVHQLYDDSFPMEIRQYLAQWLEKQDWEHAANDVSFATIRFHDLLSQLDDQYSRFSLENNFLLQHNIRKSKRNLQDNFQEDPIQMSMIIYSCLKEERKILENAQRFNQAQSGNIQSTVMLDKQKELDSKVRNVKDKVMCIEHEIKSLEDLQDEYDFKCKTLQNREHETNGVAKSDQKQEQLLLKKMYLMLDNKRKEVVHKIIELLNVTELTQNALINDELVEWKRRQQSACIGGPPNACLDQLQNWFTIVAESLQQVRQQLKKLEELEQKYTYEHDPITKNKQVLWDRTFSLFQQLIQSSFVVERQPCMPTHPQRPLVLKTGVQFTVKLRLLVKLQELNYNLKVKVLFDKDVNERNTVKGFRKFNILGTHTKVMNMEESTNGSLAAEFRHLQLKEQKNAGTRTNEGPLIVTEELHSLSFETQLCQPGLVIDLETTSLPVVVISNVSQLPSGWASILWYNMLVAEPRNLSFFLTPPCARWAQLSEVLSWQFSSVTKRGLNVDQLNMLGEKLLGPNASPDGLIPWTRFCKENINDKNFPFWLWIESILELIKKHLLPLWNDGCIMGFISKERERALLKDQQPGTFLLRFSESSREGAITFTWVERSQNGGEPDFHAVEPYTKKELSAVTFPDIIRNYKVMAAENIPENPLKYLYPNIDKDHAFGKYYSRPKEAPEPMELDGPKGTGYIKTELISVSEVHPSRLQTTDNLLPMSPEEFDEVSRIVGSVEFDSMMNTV
UniProt P40763: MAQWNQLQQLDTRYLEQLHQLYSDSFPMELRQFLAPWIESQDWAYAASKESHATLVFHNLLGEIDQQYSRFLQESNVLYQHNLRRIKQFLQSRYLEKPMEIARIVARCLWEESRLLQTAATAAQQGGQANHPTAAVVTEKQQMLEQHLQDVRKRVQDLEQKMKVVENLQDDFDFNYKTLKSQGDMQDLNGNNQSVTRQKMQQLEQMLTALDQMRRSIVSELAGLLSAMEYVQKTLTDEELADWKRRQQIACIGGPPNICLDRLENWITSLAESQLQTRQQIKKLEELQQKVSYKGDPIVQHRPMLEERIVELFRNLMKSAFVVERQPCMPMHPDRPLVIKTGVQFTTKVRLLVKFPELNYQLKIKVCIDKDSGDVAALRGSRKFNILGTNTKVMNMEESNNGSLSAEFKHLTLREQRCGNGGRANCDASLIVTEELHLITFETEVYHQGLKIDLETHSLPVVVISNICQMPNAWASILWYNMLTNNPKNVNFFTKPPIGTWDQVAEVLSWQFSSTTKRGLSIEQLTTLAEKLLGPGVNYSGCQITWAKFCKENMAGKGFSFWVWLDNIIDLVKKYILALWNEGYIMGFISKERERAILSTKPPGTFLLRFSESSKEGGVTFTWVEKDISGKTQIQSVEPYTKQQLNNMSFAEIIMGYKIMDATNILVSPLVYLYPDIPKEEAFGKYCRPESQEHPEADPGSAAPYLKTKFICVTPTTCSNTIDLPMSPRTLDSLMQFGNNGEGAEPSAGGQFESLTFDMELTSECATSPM
UniProt Q13547: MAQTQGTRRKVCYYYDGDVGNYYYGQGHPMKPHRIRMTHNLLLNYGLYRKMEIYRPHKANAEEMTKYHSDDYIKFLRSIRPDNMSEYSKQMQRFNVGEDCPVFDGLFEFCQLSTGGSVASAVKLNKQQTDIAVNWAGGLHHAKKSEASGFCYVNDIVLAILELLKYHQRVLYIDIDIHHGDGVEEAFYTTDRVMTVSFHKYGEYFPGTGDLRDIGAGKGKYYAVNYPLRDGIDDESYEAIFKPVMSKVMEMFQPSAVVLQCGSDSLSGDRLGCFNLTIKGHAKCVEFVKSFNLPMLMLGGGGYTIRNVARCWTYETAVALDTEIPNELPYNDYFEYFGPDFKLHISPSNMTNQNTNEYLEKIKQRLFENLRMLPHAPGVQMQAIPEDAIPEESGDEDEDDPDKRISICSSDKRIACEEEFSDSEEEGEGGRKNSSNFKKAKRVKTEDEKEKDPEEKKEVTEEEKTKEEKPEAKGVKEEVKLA

Assays:
[1] = biological target: phosphorylated STAT1 (human (endogenous in A549 or CL1-5 lung adenocarcinoma cells)) (UniProt P42224); test: co-IP; nuclear extracts (350 ug) from OSM-treated cells incubated overnight at 4°C with anti-STAT1 or anti-STAT3 antibody (or nonspecific IgG) on protein G Dynabeads; washed 3 times in 50 mM Tris pH 7.5, 170 mM NaCl, 13 mM MgCl2, 0.5% NP40, 0.3% Triton X-100; bound proteins detected by Western blotting
[2] = biological target: STAT3 (human (endogenous in A549 or CL1-5 lung adenocarcinoma cells)) (UniProt P40763); test: as above

binding [1]: binds
Molecule: HDAC1 (from UniProt Q13547 1-482)

binding [2]: binds
B1: PIAS3 (protein, UniProt Q9Y6X2 1-628)
chain: MAELGELKHMVMSFRVSELQVLLGFAGRNKSGRKHELLAKALHLLKSSCAPSVQMKIKELYRRRFPRKTLGPSDLSLLSLPPGTSPVGSPGPLAPIPPTLLAPGTLLGPKREVDMHPPLPQPVHPDVTMKPLPFYEVYGELIRPTTLASTSSQRFEEAHFTFALTPQQVQQILTSREVLPGAKCDYTIQVQLRFCLCETSCPQEDYFPPNLFVKVNGKLCPLPGYLPPTKNGAEPKRPSRPINITPLARLSATVPNTIVVNWSSEFGRNYSLSVYLVRQLTAGTLLQKLRAKGIRNPDHSRALIKEKLTADPDSEVATTSLRVSLMCPLGKMRLTVPCRALTCAHLQSFDAALYLQMNEKKPTWTCPVCDKKAPYESLIIDGLFMEILSSCSDCDEIQFMEDGSWCPMKPKKEASEVCPPPGYGLDGLQYSPVQGGDPSENKKKVEVIDLTIESSSDEEDLPPTKKHCSVTSAAIPALPGSKGVLTSGHQPSSVLRSPAMGTLGGDFLSSLPLHEYPPAFPLGADIQGLDLFSFLQTESQHYGPSVITSLDEQDALGHFFQYRGTPSHFLGPLAPTLGSSHCSATPAPPPGRVSSIVAPGGALREGHGGPLPSGPSLTGCRSDIISLD

binding [2]: no binding | binding [1]: binds
B2: PIAS4 (protein, UniProt Q8N2W9 1-510)
chain: MAAELVEAKNMVMSFRVSDLQMLLGFVGRSKSGLKHELVTRALQLVQFDCSPELFKKIKELYETRYAKKNSEPAPQPHRPLDPLTMHSTYDRAGAVPRTPLAGPNIDYPVLYGKYLNGLGRLPAKTLKPEVRLVKLPFFNMLDELLKPTELVPQNNEKLQESPCIFALTPRQVELIRNSRELQPGVKAVQVVLRICYSDTSCPQEDQYPPNIAVKVNHSYCSVPGYYPSNKPGVEPKRPCRPINLTHLMYLSSATNRITVTWGNYGKSYSVALYLVRQLTSSELLQRLKTIGVKHPELCKALVKEKLRLDPDSEIATTGVRVSLICPLVKMRLSVPCRAETCAHLQCFDAVFYLQMNEKKPTWMCPVCDKPAPYDQLIIDGLLSKILSECEDADEIEYLVDGSWCPIRAEKERSCSPQGAILVLGPSDANGLLPAPSVNGSGALGSTGGGGPVGSMENGKPGADVVDLTLDSSSSSEDEEEEEEEEEDEDEEGPRPKRRCPFQKGLVPAC
